Laboratory results as given in the supplement of paper PMC10849652.
Some of the results follow.

Sequences of proteins named here, by UniProt entry; tags and fusion partners are left off. A change or cut given only in a name is not applied to a line headed by its entry.
UniProt Q709C8: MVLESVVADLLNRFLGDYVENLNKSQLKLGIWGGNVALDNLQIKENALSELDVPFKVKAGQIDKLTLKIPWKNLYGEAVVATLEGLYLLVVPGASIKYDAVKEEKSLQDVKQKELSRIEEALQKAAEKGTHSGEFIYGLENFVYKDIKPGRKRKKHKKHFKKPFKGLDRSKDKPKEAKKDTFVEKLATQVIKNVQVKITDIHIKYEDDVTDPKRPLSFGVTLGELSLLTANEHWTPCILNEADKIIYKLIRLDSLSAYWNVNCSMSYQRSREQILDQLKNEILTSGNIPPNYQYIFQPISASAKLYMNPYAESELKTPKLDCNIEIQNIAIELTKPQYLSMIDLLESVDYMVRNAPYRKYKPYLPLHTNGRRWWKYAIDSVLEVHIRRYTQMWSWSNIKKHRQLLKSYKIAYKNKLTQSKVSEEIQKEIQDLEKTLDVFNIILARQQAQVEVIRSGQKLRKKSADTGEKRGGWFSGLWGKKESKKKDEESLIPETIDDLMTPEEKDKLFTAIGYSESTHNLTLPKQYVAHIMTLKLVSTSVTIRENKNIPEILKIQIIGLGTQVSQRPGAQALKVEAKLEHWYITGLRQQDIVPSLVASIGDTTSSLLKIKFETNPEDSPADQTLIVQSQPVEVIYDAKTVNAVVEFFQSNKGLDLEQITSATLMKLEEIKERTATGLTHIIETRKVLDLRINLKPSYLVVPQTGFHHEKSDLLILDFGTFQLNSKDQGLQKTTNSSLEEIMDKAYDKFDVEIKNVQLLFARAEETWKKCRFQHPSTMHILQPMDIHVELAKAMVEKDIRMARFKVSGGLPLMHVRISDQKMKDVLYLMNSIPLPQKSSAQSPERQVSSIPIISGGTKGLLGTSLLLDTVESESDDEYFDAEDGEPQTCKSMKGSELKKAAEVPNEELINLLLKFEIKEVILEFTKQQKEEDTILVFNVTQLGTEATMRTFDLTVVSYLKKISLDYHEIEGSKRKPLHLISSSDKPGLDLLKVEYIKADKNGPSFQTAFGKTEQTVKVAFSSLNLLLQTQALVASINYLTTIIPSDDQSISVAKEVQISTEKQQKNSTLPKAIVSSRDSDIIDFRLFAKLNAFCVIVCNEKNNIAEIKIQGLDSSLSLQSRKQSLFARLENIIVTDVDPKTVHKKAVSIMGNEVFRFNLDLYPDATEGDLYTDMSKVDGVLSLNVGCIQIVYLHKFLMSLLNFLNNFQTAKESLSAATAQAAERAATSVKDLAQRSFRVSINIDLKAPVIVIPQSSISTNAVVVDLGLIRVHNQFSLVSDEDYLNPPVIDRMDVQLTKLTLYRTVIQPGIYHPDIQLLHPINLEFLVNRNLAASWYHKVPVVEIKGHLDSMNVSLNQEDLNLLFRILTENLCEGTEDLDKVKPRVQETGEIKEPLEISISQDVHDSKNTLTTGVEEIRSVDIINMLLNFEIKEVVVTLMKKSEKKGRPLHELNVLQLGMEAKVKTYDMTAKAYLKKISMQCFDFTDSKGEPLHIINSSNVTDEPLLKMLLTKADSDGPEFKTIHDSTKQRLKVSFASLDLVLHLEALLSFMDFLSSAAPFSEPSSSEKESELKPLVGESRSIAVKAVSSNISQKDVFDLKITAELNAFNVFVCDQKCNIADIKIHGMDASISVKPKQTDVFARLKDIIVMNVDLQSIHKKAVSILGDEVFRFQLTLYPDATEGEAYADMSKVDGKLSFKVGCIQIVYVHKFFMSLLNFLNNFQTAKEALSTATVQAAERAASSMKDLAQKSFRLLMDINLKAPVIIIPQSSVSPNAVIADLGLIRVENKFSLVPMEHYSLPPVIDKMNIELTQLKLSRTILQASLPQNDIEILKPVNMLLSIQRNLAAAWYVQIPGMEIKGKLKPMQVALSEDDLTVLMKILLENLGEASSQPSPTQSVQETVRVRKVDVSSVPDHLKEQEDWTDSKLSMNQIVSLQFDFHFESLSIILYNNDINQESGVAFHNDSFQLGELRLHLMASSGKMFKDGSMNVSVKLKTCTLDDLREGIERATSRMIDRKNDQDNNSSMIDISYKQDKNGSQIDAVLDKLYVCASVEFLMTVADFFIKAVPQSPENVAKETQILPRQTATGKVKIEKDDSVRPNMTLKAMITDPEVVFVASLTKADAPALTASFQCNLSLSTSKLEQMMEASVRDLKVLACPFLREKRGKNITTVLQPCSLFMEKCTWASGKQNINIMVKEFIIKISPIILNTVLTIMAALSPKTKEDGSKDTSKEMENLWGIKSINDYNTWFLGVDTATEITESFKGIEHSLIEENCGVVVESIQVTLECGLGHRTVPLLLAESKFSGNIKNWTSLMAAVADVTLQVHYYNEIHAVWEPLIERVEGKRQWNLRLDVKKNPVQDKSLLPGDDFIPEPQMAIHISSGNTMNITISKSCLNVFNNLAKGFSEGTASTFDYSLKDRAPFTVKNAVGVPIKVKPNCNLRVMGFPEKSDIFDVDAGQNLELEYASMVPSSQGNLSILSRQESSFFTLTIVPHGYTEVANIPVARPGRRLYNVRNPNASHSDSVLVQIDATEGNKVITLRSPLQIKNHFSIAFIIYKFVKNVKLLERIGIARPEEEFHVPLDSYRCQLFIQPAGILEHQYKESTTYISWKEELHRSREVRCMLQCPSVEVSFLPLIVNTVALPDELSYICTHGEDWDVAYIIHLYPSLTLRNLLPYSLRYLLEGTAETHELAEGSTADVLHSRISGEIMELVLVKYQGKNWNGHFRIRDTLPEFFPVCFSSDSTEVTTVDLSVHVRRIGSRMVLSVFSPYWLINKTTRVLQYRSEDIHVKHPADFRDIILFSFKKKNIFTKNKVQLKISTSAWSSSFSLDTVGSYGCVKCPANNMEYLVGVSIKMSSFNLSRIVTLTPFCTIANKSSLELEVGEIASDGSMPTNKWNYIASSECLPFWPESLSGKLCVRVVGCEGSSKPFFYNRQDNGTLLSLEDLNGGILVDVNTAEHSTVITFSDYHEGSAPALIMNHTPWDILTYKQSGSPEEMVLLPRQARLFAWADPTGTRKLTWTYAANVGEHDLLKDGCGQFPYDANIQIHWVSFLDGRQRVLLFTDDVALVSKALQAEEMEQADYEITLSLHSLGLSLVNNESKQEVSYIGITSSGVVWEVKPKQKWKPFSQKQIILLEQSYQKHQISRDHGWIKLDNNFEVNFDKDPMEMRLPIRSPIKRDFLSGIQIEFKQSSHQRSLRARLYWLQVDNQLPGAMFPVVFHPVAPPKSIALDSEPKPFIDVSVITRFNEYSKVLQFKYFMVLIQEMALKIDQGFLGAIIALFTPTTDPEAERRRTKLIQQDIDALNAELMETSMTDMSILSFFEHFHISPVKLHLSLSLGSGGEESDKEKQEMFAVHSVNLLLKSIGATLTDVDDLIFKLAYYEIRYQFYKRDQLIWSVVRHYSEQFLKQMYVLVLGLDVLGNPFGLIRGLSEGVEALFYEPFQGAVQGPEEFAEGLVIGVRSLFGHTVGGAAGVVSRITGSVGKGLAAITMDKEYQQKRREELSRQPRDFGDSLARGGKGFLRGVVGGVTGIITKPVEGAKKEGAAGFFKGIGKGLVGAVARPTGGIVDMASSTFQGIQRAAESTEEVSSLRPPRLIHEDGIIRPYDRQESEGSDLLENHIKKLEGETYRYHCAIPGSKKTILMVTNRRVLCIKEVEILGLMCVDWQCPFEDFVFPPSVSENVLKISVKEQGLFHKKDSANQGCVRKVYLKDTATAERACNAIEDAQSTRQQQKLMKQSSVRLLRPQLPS
UniProt O00258: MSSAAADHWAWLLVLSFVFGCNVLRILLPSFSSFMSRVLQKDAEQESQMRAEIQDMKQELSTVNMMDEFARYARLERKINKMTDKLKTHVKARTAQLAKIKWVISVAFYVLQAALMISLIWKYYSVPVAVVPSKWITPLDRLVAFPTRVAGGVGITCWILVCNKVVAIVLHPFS
UniProt Q9H4A3: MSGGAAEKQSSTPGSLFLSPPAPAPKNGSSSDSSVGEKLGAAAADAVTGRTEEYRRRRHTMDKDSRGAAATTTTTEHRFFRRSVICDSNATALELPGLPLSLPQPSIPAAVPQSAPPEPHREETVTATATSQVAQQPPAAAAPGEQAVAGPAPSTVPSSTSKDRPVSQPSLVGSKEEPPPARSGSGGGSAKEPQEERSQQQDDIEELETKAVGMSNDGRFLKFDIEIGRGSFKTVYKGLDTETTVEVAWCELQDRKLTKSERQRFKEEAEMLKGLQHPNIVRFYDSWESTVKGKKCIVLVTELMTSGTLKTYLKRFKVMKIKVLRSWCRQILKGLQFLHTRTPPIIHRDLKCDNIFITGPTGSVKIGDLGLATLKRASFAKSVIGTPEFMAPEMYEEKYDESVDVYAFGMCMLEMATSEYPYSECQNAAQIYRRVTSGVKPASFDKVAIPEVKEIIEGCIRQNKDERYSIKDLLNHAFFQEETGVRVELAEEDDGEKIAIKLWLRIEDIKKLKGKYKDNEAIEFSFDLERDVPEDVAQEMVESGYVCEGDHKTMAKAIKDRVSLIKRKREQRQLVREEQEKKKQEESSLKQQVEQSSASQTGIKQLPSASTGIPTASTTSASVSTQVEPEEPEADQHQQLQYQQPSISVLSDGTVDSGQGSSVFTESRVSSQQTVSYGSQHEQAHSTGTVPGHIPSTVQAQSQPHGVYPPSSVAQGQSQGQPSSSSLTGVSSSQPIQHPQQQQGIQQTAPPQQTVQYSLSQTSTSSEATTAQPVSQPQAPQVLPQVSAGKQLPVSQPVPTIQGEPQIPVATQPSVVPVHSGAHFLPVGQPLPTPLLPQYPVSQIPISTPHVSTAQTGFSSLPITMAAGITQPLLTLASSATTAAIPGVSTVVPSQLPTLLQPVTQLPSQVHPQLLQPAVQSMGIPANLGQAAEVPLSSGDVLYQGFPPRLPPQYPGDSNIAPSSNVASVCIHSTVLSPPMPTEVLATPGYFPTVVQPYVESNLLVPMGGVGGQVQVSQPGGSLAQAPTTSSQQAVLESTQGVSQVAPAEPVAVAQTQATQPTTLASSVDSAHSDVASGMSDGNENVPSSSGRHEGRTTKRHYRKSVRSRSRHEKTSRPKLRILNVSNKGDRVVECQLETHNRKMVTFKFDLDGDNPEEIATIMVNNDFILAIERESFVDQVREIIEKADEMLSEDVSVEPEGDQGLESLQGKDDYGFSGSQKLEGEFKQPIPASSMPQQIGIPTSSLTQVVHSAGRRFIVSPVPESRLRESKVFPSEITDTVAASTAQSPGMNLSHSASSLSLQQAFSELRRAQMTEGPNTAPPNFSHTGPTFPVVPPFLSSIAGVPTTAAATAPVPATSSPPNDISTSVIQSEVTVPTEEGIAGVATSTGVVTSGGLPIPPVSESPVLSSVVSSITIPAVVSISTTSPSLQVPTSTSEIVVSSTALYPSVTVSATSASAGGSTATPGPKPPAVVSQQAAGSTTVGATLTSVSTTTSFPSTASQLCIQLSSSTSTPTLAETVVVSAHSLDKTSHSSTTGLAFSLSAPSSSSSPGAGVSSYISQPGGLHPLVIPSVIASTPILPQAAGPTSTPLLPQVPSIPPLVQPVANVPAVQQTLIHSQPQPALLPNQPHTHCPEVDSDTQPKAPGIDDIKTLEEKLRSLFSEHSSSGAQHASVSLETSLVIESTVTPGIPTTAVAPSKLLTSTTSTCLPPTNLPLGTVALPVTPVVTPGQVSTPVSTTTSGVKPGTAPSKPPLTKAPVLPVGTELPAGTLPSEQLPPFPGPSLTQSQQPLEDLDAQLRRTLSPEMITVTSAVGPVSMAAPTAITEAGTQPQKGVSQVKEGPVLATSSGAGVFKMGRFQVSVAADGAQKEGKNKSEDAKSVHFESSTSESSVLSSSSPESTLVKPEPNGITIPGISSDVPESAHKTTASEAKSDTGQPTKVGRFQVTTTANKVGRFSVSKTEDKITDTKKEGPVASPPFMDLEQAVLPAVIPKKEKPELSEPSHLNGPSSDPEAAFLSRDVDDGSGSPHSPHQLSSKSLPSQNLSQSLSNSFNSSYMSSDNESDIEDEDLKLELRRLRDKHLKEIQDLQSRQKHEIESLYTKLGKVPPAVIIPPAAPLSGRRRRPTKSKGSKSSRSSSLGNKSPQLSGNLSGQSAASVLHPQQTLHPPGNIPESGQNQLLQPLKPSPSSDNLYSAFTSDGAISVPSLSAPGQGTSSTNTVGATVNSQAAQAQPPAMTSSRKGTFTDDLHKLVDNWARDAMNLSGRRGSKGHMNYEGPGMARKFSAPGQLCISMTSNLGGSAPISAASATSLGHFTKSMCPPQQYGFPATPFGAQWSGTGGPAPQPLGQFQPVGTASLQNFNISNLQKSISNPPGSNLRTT
UniProt Q9Y277: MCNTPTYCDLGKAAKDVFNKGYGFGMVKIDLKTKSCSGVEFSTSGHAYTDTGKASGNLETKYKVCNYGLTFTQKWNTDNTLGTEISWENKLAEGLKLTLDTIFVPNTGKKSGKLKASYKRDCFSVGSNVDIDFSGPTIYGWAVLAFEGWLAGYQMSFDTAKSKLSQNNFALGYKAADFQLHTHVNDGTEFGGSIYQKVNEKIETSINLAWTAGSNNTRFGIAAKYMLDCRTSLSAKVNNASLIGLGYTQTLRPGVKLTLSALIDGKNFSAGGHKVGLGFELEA

How the values were obtained:
Test in all cases: log2 fold change, soluble protein after heating vs DMSO (PISA); higher = thermal stabilisation; K562 cells, 10 uM, 30 min; active = over 0.2 and 3.5 SD of the protein, either way, in both replicates (recomputed)
[1] = compound: C1=CC=C(C=C1)[C@H](COC2=CC3=C(C=C2)NC(=O)N3)NC(=O)C4=CC=CN(C4=O)CC5=CC(=C(C=C5)F)F
Summary of the method: (§1)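 K562 cells (2×10^6 cells/mL) were treated with 10 μM compound for 30 min, and aliquots were heated for 3 min over 48°C-58°C. Pooled aliquots were extracted in PBS with 0.5% NP-40 at 4°C, and the supernatant after 21,000xg for 90 min was measured by TMTpro 16plex LC-MS/MS with channel sums equalised. Reported thermal stability, relative to control samples and from duplicates, is a log2 fold change.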

[2] = compound: CC1=C(SC2=C1C(=N[C@H](C3=NN=C(N32)C)CC(=O)N)C4=CC=C(C=C4)Cl)C
Summary of the method: as §1

[3] = compound: CC1=C2C(=CC=C1)N=C(N(C2=O)C3=CC=CC=C3C)CN4C=NC5=C(N=CN=C54)N
Summary of the method: as §1

[4] = compound: Cc1sc2c(c1C)C(c1ccc(Cl)cc1)=N[C@@H](CC(=O)OC(C)(C)C)c1nnc(C)n1-2
Summary of the method: as §1

[5] = compound: c1ccc([C@@H]2C[C@H]2NC2CCNCC2)cc1
Summary of the method: as §1

Measured: log2 fold change

WDR33 (UniProt Q9C0J8)
inactive: [1] 0.083 | [2] -0.101 | [3] 0.167 | [4] 0.097 | [5] -0.036

WARS1 (UniProt G3V5U1)
inactive: [1] 0.193

WASHC3 (UniProt Q9Y3C0)
inactive: [1] 0.015 | [2] -0.022 | [3] 0.045 | [4] -0.001 | [5] 0.028

WAPL isoform 3 (UniProt Q7Z5K2)
inactive: [1] -0.116 | [2] 0.021 | [3] 0.138 | [4] -0.08 | [5] 0.095

VIM (UniProt P08670)
inactive: [1] 0.251 | [2] -0.232 | [3] -0.192 | [4] 0.07 | [5] 0.071

VPS13C (UniProt Q709C8)
inactive: [1] -0.013 | [2] 0.067 | [3] 0.052 | [4] -0.049 | [5] 0.006

VPS41 (UniProt P49754)
inactive: [1] -0.028 | [2] 0.06 | [3] 0.152 | [4] -0.017 | [5] -0.052

VWA5A (UniProt O00534)
inactive: [1] 0.018 | [2] 0 | [3] 0.051 | [4] -0.036 | [5] -0.116

WDR70 (UniProt Q9NW82)
inactive: [1] -0.016 | [2] 0.052 | [3] 0.034 | [4] -0.016 | [5] 0.012

WARS1 (UniProt G3V3P2)
inactive: [1] 0.095

VPS25 (UniProt Q9BRG1)
inactive: [1] -0.012 | [2] 0.137 | [3] 0.07 | [4] -0.104 | [5] -0.031

VRK2 (UniProt Q86Y07)
inactive: [1] 0.001 | [2] 0.004 | [3] 0.011 | [4] 0.005 | [5] -0.083

VDAC2 (UniProt Q5JSD1)
inactive: [1] -0.217

WRAP53 (UniProt Q9BUR4)
inactive: [1] 0.039 | [2] -0.137 | [3] -0.02 | [4] 0.039 | [5] 0.042

WRB (UniProt O00258)
inactive: [1] 0.002 | [2] -0.007 | [3] -0.015 | [4] 0.005 | [5] 0.01

VPS45 (UniProt Q9NRW7)
inactive: [1] 0.104 | [2] -0.013 | [3] 0.076 | [4] -0.057 | [5] -0.052

VWA3B isoform 6 (UniProt Q502W6)
inactive: [1] -0.161 | [2] 0.069 | [3] 0.162 | [4] 0.129 | [5] 0.064

WBP1L isoform 2 (UniProt Q9NX94)
inactive: [1] 0.29

VPS35 (UniProt Q96QK1)
inactive: [1] -0.043 | [2] 0.001 | [3] 0.018 | [4] -0.006 | [5] -0.018

WDR48 (UniProt Q8TAF3)
inactive: [1] 0.025 | [2] 0.009 | [3] 0.009 | [4] -0.018 | [5] -0.001

WDR18 (UniProt Q9BV38)
inactive: [1] 0 | [2] 0.011 | [3] -0.019 | [4] -0.037 | [5] 0.019

VGF (UniProt O15240)
inactive: [1] -0.668

VDAC2 (UniProt Q5JSD2)
inactive: [1] -0.12

WDCP (UniProt Q9H6R7)
inactive: [1] 0.013 | [2] 0 | [3] -0.015 | [4] 0.039 | [5] 0.145

WBP11 (UniProt Q9Y2W2)
inactive: [1] 0.021 | [2] -0.024 | [3] -0.047 | [4] 0.024 | [5] 0.032

VRK1 (UniProt Q99986)
inactive: [1] -0.13 | [2] 0.02 | [3] 0.178 | [4] -0.019 | [5] -0.136

WDR45B (UniProt Q5MNZ6)
inactive: [1] 0.019 | [2] 0.087 | [3] 0.015 | [4] -0.072 | [5] 0.023

WDR11 (UniProt Q9BZH6)
inactive: [1] -0.076 | [2] 0.067 | [3] 0.111 | [4] 0.05 | [5] 0.023

WDR4 isoform 3 (UniProt P57081)
inactive: [1] -0.18

3 records drawn at random from the list so far, as already listed:
VRK2 (UniProt Q86Y07)
inactive: [1] 0.001 | [2] 0.004 | [3] 0.011 | [4] 0.005 | [5] -0.083

WDR11 (UniProt Q9BZH6)
inactive: [1] -0.076 | [2] 0.067 | [3] 0.111 | [4] 0.05 | [5] 0.023

WDR18 (UniProt Q9BV38)
inactive: [1] 0 | [2] 0.011 | [3] -0.019 | [4] -0.037 | [5] 0.019

The list goes on:

WDR55 (UniProt Q9H6Y2)
inactive: [1] 0.003 | [2] -0.015 | [3] 0.022 | [4] 0.018 | [5] 0.051

VPS4B (UniProt O75351)
inactive: [1] -0.051 | [2] 0.054 | [3] 0.09 | [4] 0.007 | [5] -0.004

VIL1 (UniProt P09327)
inactive: [1] 0.046

WNK1 isoform 7 (UniProt Q9H4A3)
inactive: [1] -0.011 | [2] 0.023 | [3] 0.049 | [4] -0.007 | [5] -0.003

VDAC3 (UniProt Q9Y277)
inactive: [1] 0.036 | [2] 0.026 | [3] 0.097 | [4] -0.034 | [5] -0.014

WDR91 (UniProt A4D1P6)
inactive: [1] -0.064 | [2] -0.059 | [3] 0.056 | [4] -0.043 | [5] 0.016

VPS4A (UniProt Q9UN37)
inactive: [1] -0.015 | [2] 0.081 | [3] 0.015 | [4] 0.008 | [5] -0.025

WDSUB1 (UniProt Q8N9V3)
inactive: [1] -0.032 | [2] 0.021 | [3] 0.055 | [4] -0.011 | [5] 0.035

WDR41 (UniProt Q9HAD4)
inactive: [1] -0.045 | [2] -0.08 | [3] -0.033 | [4] -0.03 | [5] 0.055

WASHC4 (UniProt Q2M389)
inactive: [1] -0.042 | [2] -0.037 | [3] 0.128 | [4] 0.056 | [5] 0.06

VPS50 (UniProt Q96JG6)
inactive: [1] -0.039 | [2] 0.055 | [3] 0.022 | [4] -0.013 | [5] 0.01

VPS51 (UniProt Q9UID3)
inactive: [1] -0.047 | [2] 0.026 | [3] 0.047 | [4] -0.048 | [5] -0.044

VPS35L (UniProt Q7Z3J2)
inactive: [1] -0.046 | [2] -0.13 | [3] 0.011 | [4] -0.024 | [5] 0

WASHC2C, A0A096LPC5
inactive: [1] 0.015 | [2] 0.012 | [3] 0.008 | [4] 0.027 | [5] 0.001

WDR26, A0A499FIZ0
inactive: [1] 0.002 | [2] -0.064 | [3] 0.003 | [4] 0.008 | [5] 0.042

WDR46 (UniProt O15213)
inactive: [1] 0.058 | [2] -0.35 | [3] -0.302 | [4] 0.246 | [5] -0.005

VPS28 (UniProt Q9UK41)
inactive: [1] -0.075 | [2] 0.023 | [3] 0.064 | [4] 0.011 | [5] -0.01

WDFY1 (UniProt Q8IWB7)
inactive: [1] -0.001 | [2] -0.024 | [3] -0.016 | [4] 0.027 | [5] 0.058

WASF2 (UniProt Q9Y6W5)
inactive: [1] 0.023 | [2] 0.016 | [3] 0.064 | [4] 0.024 | [5] 0.021

VTN (UniProt P04004)
inactive: [1] -0.1 | [2] 0.051 | [3] -0.03 | [4] 0.121 | [5] -0.009

WDR5 (UniProt P61964)
inactive: [1] 0.04 | [2] -0.121 | [3] -0.129 | [4] 0.003 | [5] 0.034

VPS13A (UniProt Q96RL7)
inactive: [1] -0.001 | [2] 0.036 | [3] 0.007 | [4] -0.045 | [5] -0.002

WDTC1 (UniProt Q8N5D0)
inactive: [1] -0.059 | [2] -0.043 | [3] 0.036 | [4] -0.093 | [5] -0.06

WRNIP1 (UniProt Q96S55)
inactive: [1] -0.196 | [2] 0.049 | [3] 0.12 | [4] 0.06 | [5] -0.05

WIPF1 isoform 3 (UniProt O43516)
inactive: [1] -0.012 | [2] 0.159 | [3] -0.007 | [4] 0.102 | [5] 0.149

VPS13D (UniProt Q5THJ4)
inactive: [1] 0.089 | [2] -0.019 | [3] -0.079 | [4] -0.021 | [5] -0.064

WDR13 (UniProt Q9H1Z4)
inactive: [1] 0.009 | [2] 0.052 | [3] 0.071 | [4] -0.013 | [5] -0.114

VPS8 (UniProt Q8N3P4)
inactive: [1] -0.08 | [2] 0.106 | [3] 0.042 | [4] -0.034 | [5] 0.017

VPS33A (UniProt Q96AX1)
inactive: [1] -0.039 | [2] 0.053 | [3] 0.147 | [4] 0.059 | [5] -0.041
